# Results published in the supplement of paper PMC7024190.
# This is one part of the list. Single values are uncertain here, since repeats match poorly.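 A first-round screen of about ten thousand compounds sought those raising reporter output, using human embryonic kidney cells briefly transfected with a plasmid carrying a Renilla luciferase gene driven by the HSV-TK promoter.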
# System: HEK 293FT
# Assay: log relative Renilla luciferase luminescence (reporter expression vs reference, reference not stated) (log (base not stated)); higher = higher recombinant reporter expression
# Settings: 10 µM; time after transfection 48 h
# Method: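 HEK 293FT cells transiently transfected with pRL-TK (Renilla luciferase) were treated with compounds at 10 uM and luminescence was read about 42 h later. Values are log relative Renilla luminescence (log base and reference not stated). Single-pass screen; 2080 natural products library.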
row,Compound,log
1,C/C=C1\CN(C)[C@H]2C[C@@]3(C(=O)N(OC)c4ccccc43)[C@H]3C[C@@H]1[C@@H]2CO3 [Humantenine],-0.0825
2,COc1ccc2c3c([nH]c2c1)C(C)=NCC3 [Harmaline],-0.225
3,C=C[C@@]12CN(C)[C@H]3C[C@]14C(=Nc1ccccc14)[C@@H]1C[C@@H]2[C@@H]3CO1 [Koumine],-0.108
4,CC(C)C1CCC2(C)C3CC(O)C45CCCC4C2(CCC(=O)C2(C)COC4(C)CCC2O4)C1N5C3 (stereo not drawn) [11-Hydroxycodaphniphylline],-0.401
5,O=c1cccc2n1CC1CCCN3CCCC2C13 (stereo not drawn) [Neosophoramine],-0.0508
6,CCC12C=CCN3CC[C@@]4(c5ccc(OC)cc5N(C)[C@H]4[C@@](O)(C(=O)OC)[C@@H]1OC(C)=O)[C@@H]32 (stereo partly drawn) [Vindoline],0.0852
7,COC(=O)C1=COC(C)C2CN3CCC4(C(=O)Nc5cc(OC)c(OC)cc54)C3CC12 (stereo not drawn) [Isocarapanaubine],0.0924
8,Cc1cc2c(O)c3c(c(O)c2o1)[C@@]1(C)CCC(=O)C(C)(C)C1=C(O)C3=O [Teuvincenone H],0.0294
9,COc1ccc([C@@]23Oc4cc(OC)cc(OC)c4[C@]2(O)[C@H](O)C[C@H]3c2ccccc2)cc1 [Rocaglaol],-0.805
10,O=C1CCC[C@@H]2[C@H]3C[C@@H](CN12)[C@@H]1CCCCN1C3 [Lupanine],-0.158
11,CCC1CN2CCc3c([nH]c4ccccc34)C2CC1C(CO)C(=O)OC [(16R)-Dihydrositsirikine],-0.00908
12,C/C=C1/C[N@+]2(C)CC[C@@]34c5ccccc5N[C@]32[C@@H](O)C[C@@H]1[C@@]4(CO)C(=O)OC [Echitamine],-0.0313
13,O=C1c2ccccc2-c2c3c(cc4ccnc1c24)OCO3 [Liriodenine],-0.195
14,"CC(C)[C@]12C=C3CC[C@H]4[C@](C)(C(=O)O)CCC[C@]4(C)[C@@]3(CC1)OO2 [9,13-Epidioxy-8(14)-abieten-18-oic acid]",-0.251
15,CCC1=N[C@H]2C[C@@]3(C(=O)N(OC)c4ccccc43)[C@H]3CC1[C@@H]2CO3 [Humantenmine],-0.744
16,O=C1C=CC[C@@H]2[C@H]3CCCN4CCC[C@@H](CN12)[C@@H]34 [Sophocarpine],-0.0633
17,COC(=O)C1=C2Nc3c(O)cccc3[C@@]23CCN2C[C@@H]([C@H](C)O)[C@@H]1C[C@H]23 [Scholaricine],0.0337
18,C=C1[C@@H](O)[C@]2(O)OC[C@]34[C@H]2[C@@]2(C)[C@H](O)C(=O)C=C(C)[C@@H]2C[C@H]3OC(=O)C[C@@H]14 [Ailanthone],-1.55

# In a second layout: entries from further up.
row | Compound | log
6 | CCC12C=CCN3CC[C@@]4(c5ccc(OC)cc5N(C)[C@H]4[C@@](O)(C(=O)OC)[C@@H]1OC(C)=O)[C@@H]32 (stereo partly drawn) [Vindoline] | 0.0852
7 | COC(=O)C1=COC(C)C2CN3CCC4(C(=O)Nc5cc(OC)c(OC)cc54)C3CC12 (stereo not drawn) [Isocarapanaubine] | 0.0924
